Results deposited as PubChem BioAssay AID652259 (Drosophila RNAi Screening Center, 2013)
In all, the deposit lists about 22,000 reagents; shown is an unselected part of those that have a named target and a result. Of all reagents, 233 (1.1%) are marked active. 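Light values are raw, unnormalised plate reads; the ratio scores behind the reporter calls were not deposited.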 A plus sign joins genes that one reagent is predicted to hit. Reagent sequences are not shown. Not stated in the record: the amount of reagent, the time to read-out, the dose of the treatment.

Screen: 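Identify new Wingless signalling regulators in fly cells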 (primary screen)
Cells: Drosophila clone 8 imaginal disc epithelial cells
Reagent: long dsRNA against Drosophila genes
Conditions: pathway stimulated by co-transfected Wingless expression plasmid
Measurement: 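Firefly luciferase from a tcf-site Wingless reporter, measured alongside co-transfected Renilla luciferase that tracks transfection; pathway stimulated by a Wingless plasmid; the firefly-to-Renilla ratio is not deposited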
Scale: firefly reporter light: higher = more Wg reporter light, before normalisation; Renilla control light: higher = more transfected or surviving cells
Rule for the call: 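Strong candidates differ from their plate mean by at least two out of four per-plate statistical tests; weak candidates meet just one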
Meaning of the calls: active = candidate regulator (raises or lowers reporter); inactive = not a candidate

frac [DRSC10867] scored firefly reporter light, replicate 1 = 3308; Renilla control light, replicate 1 = 976; inactive. After knock-down of CG31808 [DRSC22962], the screen gave firefly reporter light, replicate 1 = 7.66e5; firefly reporter light, replicate 2 = 7.94e5; Renilla control light, replicate 1 = 4.07e5; Renilla control light, replicate 2 = 3.30e5; inactive. With knock-down of wgn [DRSC19998], the screen gave firefly reporter light, replicate 1 = 21692; Renilla control light, replicate 1 = 12064; inactive. Against prg [DRSC03324], the entry reads firefly reporter light, replicate 1 = 3576; firefly reporter light, replicate 2 = 10533; Renilla control light, replicate 1 = 1020; Renilla control light, replicate 2 = 2645; inactive. Against CG14684 [DRSC14907], the entry reads firefly reporter light, replicate 1 = 18264; Renilla control light, replicate 1 = 4291; inactive. Against GCC88 [DRSC14264], the entry reads firefly reporter light, replicate 1 = 15447; Renilla control light, replicate 1 = 4582; inactive.

Naam [DRSC16252] scored firefly reporter light, replicate 1 = 18192; Renilla control light, replicate 1 = 5394; inactive. Silencing of gdl-ORF39 + gdl [DRSC11350] resulted in: firefly reporter light, replicate 1 = 7387; Renilla control light, replicate 1 = 1894; inactive. With knock-down of Sodq [DRSC15924] the results were firefly reporter light, replicate 1 = 16323; Renilla control light, replicate 1 = 14842; inactive. For RagA-B [DRSC14450], the entry reads firefly reporter light, replicate 1 = 5047; Renilla control light, replicate 1 = 2487; inactive. Silencing of ND-30 [DRSC08243] resulted in: firefly reporter light, replicate 1 = 7196; Renilla control light, replicate 1 = 2874; inactive. Against CG11356 [DRSC19401], the entry reads firefly reporter light, replicate 1 = 14354; Renilla control light, replicate 1 = 7970; inactive.

Knock-down of cass [DRSC01850] came out at: firefly reporter light, replicate 1 = 6018; Renilla control light, replicate 1 = 2768; inactive. Against Secp43 [DRSC00454], the values are firefly reporter light, replicate 1 = 1488; firefly reporter light, replicate 2 = 6683; Renilla control light, replicate 1 = 800; Renilla control light, replicate 2 = 3032; inactive. Against Wnk [DRSC11813] the deposit lists reporter change call, replicate 1 = Wg reporter activity raised; firefly reporter light, replicate 1 = 15960; Renilla control light, replicate 1 = 1911; active. After knock-down of CG34231 [DRSC05323] the results were firefly reporter light, replicate 1 = 18745; Renilla control light, replicate 1 = 12074; inactive. CG9915 [DRSC20217] gave firefly reporter light, replicate 1 = 24932; Renilla control light, replicate 1 = 8208; inactive. Against CG9915 [DRSC21565] the deposit lists firefly reporter light, replicate 1 = 9.48e5; firefly reporter light, replicate 2 = 9.31e5; Renilla control light, replicate 1 = 5.03e5; Renilla control light, replicate 2 = 4.73e5; inactive.

Depletion of loco [DRSC15202] resulted in: firefly reporter light, replicate 1 = 22419; Renilla control light, replicate 1 = 16452; inactive. With knock-down of loco [DRSC16989] the results were firefly reporter light, replicate 1 = 1251; firefly reporter light, replicate 2 = 5649; Renilla control light, replicate 1 = 794; Renilla control light, replicate 2 = 1762; inactive. After knock-down of ckn [DRSC06149] the results were firefly reporter light, replicate 1 = 13856; Renilla control light, replicate 1 = 3681; inactive. For Mst57Da [DRSC16744], the values are firefly reporter light, replicate 1 = 26268; Renilla control light, replicate 1 = 18417; inactive. mRpL9 [DRSC15678] gave firefly reporter light, replicate 1 = 12202; Renilla control light, replicate 1 = 2977; inactive. Silencing of CG12640 [DRSC17847] gave: firefly reporter light, replicate 1 = 26387; Renilla control light, replicate 1 = 9031; inactive.

CG12951 [DRSC14579] scored firefly reporter light, replicate 1 = 11728; Renilla control light, replicate 1 = 2017; inactive.

Entries above whose target name begins with S or s:
Sodq [DRSC15924] — firefly reporter light, replicate 1: 16323; Renilla control light, replicate 1: 14842; Call: inactive
Secp43 [DRSC00454] — firefly reporter light, replicate 1: 1488; firefly reporter light, replicate 2: 6683; Renilla control light, replicate 1: 800; Renilla control light, replicate 2: 3032; Call: inactive
